The list shows only some results of the screen, not a fair sample: it is rich in T/C values a quarter to a half above the control, in often repeated tests (any T/C) and in doses without a T/C. Further doses and runs are listed elsewhere. T/C: endpoint of the treated group in % of that of the vehicle group. Schedules are NCI's codes, read here as Q, the interval in days (D) or hours (H), X, the number of doses. Some entries were tested several times; their values stand side by side, smallest first. Additions like (4×) say how often a value occurs here. Some entries give survivors of the animals treated and no T/C: the source files T/C as zero there, which appears to mark a toxic dose or a test without result, not a measured value. Counts of survivors are from the toxicity check (mostly the fifth day) where no day follows; animals may have died later.
Test system: CD2F1 mice, P1798 lymphosarcoma sc, tumor weight T/C
Assay: NCI In Vivo Anticancer Drug Screen. Data for tumor model P1798 Lymphosarcoma (subcutaneous) in CD2F1 (CDF1) mice
Details: T/C endpoint: mean tumor weight, higher T/C = larger tumour
Experimental: The antitumor activity of compounds was measured in mice bearing transplantable tumors. Survival or tumor size were measured and the results are expressed as the measurement made in the treated group (T) divided by the measurement made in the vehicle treated control group (C). The tumor model used in this assay is P1798 Lymphosarcoma (subcutaneous) in CD2F1 (CDF1) mice

[1] = dose: 100.0 mg/kg/injection, schedule: Q01DX010 (ip), vehicle: saline
[2] = dose: 200.0 mg/kg/injection, schedule: Q01DX010 (ip), vehicle: saline
[3] = dose: 2.0 mg/kg/injection, schedule: Q01DX010 (ip), vehicle: saline
[4] = dose: 25.0 mg/kg/injection, schedule: Q01DX010 (sc), vehicle: steroid suspending solution, evaluated on day 12
[5] = dose: 50.0 mg/kg/injection, schedule: Q01DX010 (sc), vehicle: steroid suspending solution, evaluated on day 12
[6] = dose: 50.0 mg/kg/injection, schedule: Q01DX010 (sc), vehicle: steroid suspending solution
[7] = dose: 100.0 mg/kg/injection, schedule: Q01DX010 (sc), vehicle: steroid suspending solution
[8] = dose: 1.0 mg/kg/injection, schedule: Q01DX010 (ip), vehicle: saline

## CCCSc1ncnc2nc[nH]c12
dose: 125.0 mg/kg/injection, schedule: Q01DX010 (ip), vehicle: saline, evaluated on day 12
  T/C: 147 % of control
dose: 250.0 mg/kg/injection, schedule: Q01DX010 (ip), vehicle: saline
  survivor count: 0 of 6

## COc1ccc2c(c1OC)C(=O)O[C@@H]2[C@H]1c2c(cc3c(c2OC)OCO3)CCN1C
dose: 125.0 mg/kg/injection, schedule: Q01DX010 (ip), vehicle: saline
  survivor count: 2 of 6
dose: 500.0 mg/kg/injection, schedule: Q01DX010 (ip), vehicle: saline
  survivor count: 0 of 6

## Oc1cc(CN(CCCl)CCCl)c(O)cc1CN(CCCl)CCCl
dose: 5.0 mg/kg/injection, schedule: Q01DX010 (ip), vehicle: saline
  survivor count: 1 of 6

## O=C(NCCCC(NC(=O)OCc1ccccc1)C(=O)NCCCNCCCCNCCCNC(=O)C(CCCNC(=O)OCc1ccccc1)NC(=O)OCc1ccccc1)OCc1ccccc1 (stereo not given)
dose: 0.31 mg/kg/injection, schedule: Q01DX010 (ip), vehicle: saline, evaluated on day 12
  T/C: 130 % of control

## COc1cc(-c2ccc(Nc3ccccc3C(=O)O)c(OC)c2)ccc1Nc1ccccc1C(=O)O
[1]
  survivor count: 2 of 6 and 3 of 6
[2]
  survivor count: 0 of 6

## S=P(N1CCOCC1)(N1CC1)N1CC1
dose: 20.0 mg/kg/injection, schedule: Q01DX010 (ip), vehicle: saline
  survivor count: 2 of 6

## CO[C@@]12[C@H](COC(N)=O)C3=C(C(=O)C(C)=C(N)C3=O)N1C[C@@H]1N[C@@H]12
[3]
  survivor count: 0 of 6

## S=c1nc[nH]c2nc[nH]c12
dose: 80.0 mg/kg/injection, schedule: Q01DX010 (ip), vehicle: alkali diluted with saline
  survivor count: 3 of 6

## C=C1C[C@H]2[C@@H]3C=C(C)C4=CC(=O)CC[C@]4(C)[C@H]3CC[C@]2(C)[C@@]1(OC(C)=O)C(C)=O
[4]
  T/C: 137 % of control
[5]
  T/C: 134 % of control
dose: 62.5 mg/kg/injection, schedule: Q01DX010 (sc), vehicle: steroid suspending solution, evaluated on day 12
  T/C: 129 % of control
dose: 125.0 mg/kg/injection, schedule: Q01DX001 (sc), vehicle: steroid suspending solution, evaluated on day 12
  T/C: 125 % of control
dose: 1000.0 mg/kg/injection, schedule: Q02DX005 (sc), vehicle: steroid suspending solution, evaluated on day 12
  T/C: 137 % of control

## N#CCSc1ncnc2nc[nH]c12
dose: 15.0 mg/kg/injection, schedule: Q01DX010 (ip), vehicle: saline, evaluated on day 12
  T/C: 135 % of control
dose: 120.0 mg/kg/injection, schedule: Q01DX010 (ip), vehicle: saline
  survivor count: 3 of 6

## O=C(O)CCCc1ccc(N(CCCl)CCCl)cc1
dose: 12.5 mg/kg/injection, schedule: Q01DX010 (ip), vehicle: saline
  survivor count: 1 of 6
dose: 25.0 mg/kg/injection, schedule: Q01DX010 (ip), vehicle: saline
  survivor count: 0 of 6

## Nc1ncnc2[nH]ncc12
dose: 12.0 mg/kg/injection, schedule: Q01DX010 (ip), vehicle: saline
  survivor count: 0 of 6

## CC(=O)OCC(=O)[C@@]1(O)CC[C@H]2[C@@H]3CCC4=CC(=O)[C@H](C)C[C@]4(C)[C@@]3(F)[C@@H](O)C[C@@]21C
[6]
  survivor count: 1 of 6 and 3 of 6
[7]
  survivor count: 0 of 6

## COc1cc(C[C@H]2c3cc(OC)c(OC)cc3CCN2C)c(Oc2cc3c(cc2OC)-c2c(OC)c(OC)cc4c2[C@H](C3)N(C)CC4)cc1OC
dose: 200.0 mg/kg/injection, schedule: Q01DX011 (ip), vehicle: carboxymethylcellulose (CMC)
  survivor count: 0 of 4

## CCN(CC)CCNc1ccc(C)c2sc3ccccc3c(=O)c12
[1]
  survivor count: 3 of 6
[2]
  survivor count: 0 of 6

## C[C@]12C=CC(=O)C=C1CC[C@H]1[C@@H]3C[C@@H](O)[C@](O)(C(=O)CO)[C@@]3(C)C[C@H](O)[C@@]12F
dose: 12.5 mg/kg/injection, schedule: Q02DX010 (sc), vehicle: steroid suspending solution, run until all animals had died
  T/C: 132 % of control
[6]
  survivor count: 2 of 6
[7]
  survivor count: 0 of 6 and 3 of 6

## CC(=O)OC(C)(C)/C=C/C(=O)[C@](C)(O)[C@H]1[C@H](O)C[C@@]2(C)[C@@H]3CC=C4[C@@H](C[C@H](O)C(=O)C4(C)C)[C@]3(C)C(=O)C[C@]12C
dose: 0.8 mg/kg/injection, schedule: Q01DX011 (ip), vehicle: carboxymethylcellulose (CMC)
  survivor count: 0 of 4
dose: 1.2 mg/kg/injection, schedule: Q01DX011 (ip), vehicle: carboxymethylcellulose (CMC)
  survivor count: 0 of 4
dose: 1.6 mg/kg/injection, schedule: Q01DX011 (ip), vehicle: carboxymethylcellulose (CMC)
  survivor count: 0 of 4
dose: 3.2 mg/kg/injection, schedule: Q01DX011 (ip), vehicle: carboxymethylcellulose (CMC)
  survivor count: 0 of 4

## COC1=C(N)C(=O)c2nc(-c3nc(C(=O)O)c(C)c(-c4ccc(OC)c(OC)c4O)c3N)ccc2C1=O
dose: 0.2 mg/kg/injection, schedule: Q01DX010 (ip), vehicle: other
  survivor count: 3 of 6
dose: 0.3 mg/kg/injection, schedule: Q01DX010 (ip), vehicle: saline
  survivor count: 1 of 6
dose: 0.45 mg/kg/injection, schedule: Q01DX010 (ip), vehicle: saline
  survivor count: 0 of 6
dose: 0.66 mg/kg/injection, schedule: Q01DX010 (ip), vehicle: saline
  survivor count: 0 of 6

## Cc1cc2nc3c(=O)[nH]c(=O)nc-3n(CC(O)C(O)C(O)C(O)CO)c2cc1C (stereo not given)
dose: 400.0 mg/kg/injection, schedule: Q01DX010 (ip), vehicle: saline
  survivor count: 0 of 6

## CC1C[C@@H]2[C@H]([C@@H](O)C[C@@]3(C)[C@H]2CC[C@]3(O)C(=O)CF)[C@@]2(C)CCC(=O)C=C12 (stereo not given in full)
dose: 75.0 mg/kg/injection, schedule: Q01DX010 (sc), vehicle: steroid suspending solution, run until all animals had died
  T/C: 130 % of control

## Nc1nncs1
dose: 60.0 mg/kg/injection, schedule: Q01DX010 (ip), vehicle: saline
  survivor count: 0 of 6

## CC(=O)[C@H]1CC[C@H]2[C@@H]3C[C@H](C)C4=CC(=O)CC[C@]4(C)[C@H]3C(=O)C[C@]12C
dose: 25.0 mg/kg/injection, schedule: Q03DX004 (sc), vehicle: steroid suspending solution, evaluated on day 12
  T/C: 137 % of control
dose: 100.0 mg/kg/injection, schedule: Q01DX010 (sc), vehicle: steroid suspending solution, evaluated on day 12
  T/C: 19, 23, 28 % of control (2×)
dose: 100.0 mg/kg/injection, schedule: Q01DX010 (sc), vehicle: steroid suspending solution, run until all animals had died
  T/C: 108 % of control
dose: 200.0 mg/kg/injection, schedule: Q01DX010 (sc), vehicle: steroid suspending solution
  survivor count: 3 of 6

## Cc1cc(C(C)(C)C)ccc1O
dose: 50.0 mg/kg/injection, schedule: Q01DX011 (ip), vehicle: carboxymethylcellulose (CMC)
  survivor count: 3 of 6

## CC(=O)NC1=C(N2CC2)C(=O)C(NC(C)=O)=C(N2CC2)C1=O
[8]
  survivor count: 3 of 6
[3]
  survivor count: 0 of 6

## CC1CC(C)OS(=O)O1 (stereo not given)
[1]
  survivor count: 2 of 6
dose: 150.0 mg/kg/injection, schedule: Q01DX010 (ip), vehicle: saline
  survivor count: 0 of 6

## C[C@]12CC[C@H](OC3OC(CO)C(O)C(O)C3O)C[C@H]1CC[C@@H]1[C@@H]2CC[C@]2(C)[C@@H](C3=CCOC3=O)CC[C@]12O (stereo not given in full)
[8]
  survivor count: 1 of 6 and 3 of 6
[3]
  survivor count: 0 of 6
dose: 4.0 mg/kg/injection, schedule: Q01DX010 (ip), vehicle: saline
  survivor count: 0 of 6

## C[C@H]1C[C@@H]2[C@H]([C@@H](O)C[C@@]3(C)[C@H]2CC[C@]3(O)C(=O)CO)[C@@]2(C)C=CC(=O)C=C12
[7]
  survivor count: 1 of 6

## Cc1nc(N2CC2)nc(N2CC2)c1[N+](=O)[O-]
dose: 10.0 mg/kg/injection, schedule: Q01DX010 (ip), vehicle: saline
  survivor count: 0 of 6 and 1 of 6

## CC/C(=C(/CC)c1ccc(O)cc1)c1ccc(O)cc1
dose: 12.5 mg/kg/injection, schedule: Q01DX010 (sc), vehicle: steroid suspending solution, evaluated on day 12
  T/C: 68, 86, 103 % of control
dose: 12.5 mg/kg/injection, schedule: Q01DX010 (sc), vehicle: steroid suspending solution, run until all animals had died
  T/C: 89 % of control
[4]
  T/C: 57, 97, 136 % of control
dose: 25.0 mg/kg/injection, schedule: Q01DX010 (sc), vehicle: steroid suspending solution, run until all animals had died
  T/C: 85 % of control
[5]
  T/C: 55, 63, 86 % of control
dose: 50.0 mg/kg/injection, schedule: Q01DX010 (sc), vehicle: steroid suspending solution, run until all animals had died
  T/C: 104 % of control

— PubChem BioAssay AID268 (DTP/NCI, 2004)
